Experimental findings from the OPERA property sets (Mansouri et al. 2018) are described below.

Each structure is given as a SMILES string.

As to `O=C(Nc1ccccc1)c1ccccc1`, the logP was found to be 2.62. Turning to `CCn1cc(C(=O)O)c(=O)c2cc(F)c(N3CCN(C)CC3)cc21`, the logP was 0.27. `NC(=O)NNc1ccccc1` had a logP of 0.13. Compound `C[C@@H]1C[C@H]2[C@@H]3C[C@H](F)C4=CC(=O)C=C[C@]4(C)[C@@]3(F)[C@@H](O)C[C@]2(C)[C@@]1(O)C(=O)CO` had a logP of 1.94.

Usually logP stands for the decadic logarithm of the partition coefficient of the neutral form, usually between octanol and water.
